This is an account of results in paper doi:10.1101/2024.02.14.580281.

No constants are given. Whether binding was seen depends on the method and setting. In cells and extracts the contact can be indirect. Some results given as binding are weak or reduced against the parent protein; the word gives no strength.

For one test, the target named is CFAP53 (UniProt Q96M91). The experiment in a line: co-IP.
The target in another test is T1, MNS1 (UniProt Q8NEH6).
T1 sequence: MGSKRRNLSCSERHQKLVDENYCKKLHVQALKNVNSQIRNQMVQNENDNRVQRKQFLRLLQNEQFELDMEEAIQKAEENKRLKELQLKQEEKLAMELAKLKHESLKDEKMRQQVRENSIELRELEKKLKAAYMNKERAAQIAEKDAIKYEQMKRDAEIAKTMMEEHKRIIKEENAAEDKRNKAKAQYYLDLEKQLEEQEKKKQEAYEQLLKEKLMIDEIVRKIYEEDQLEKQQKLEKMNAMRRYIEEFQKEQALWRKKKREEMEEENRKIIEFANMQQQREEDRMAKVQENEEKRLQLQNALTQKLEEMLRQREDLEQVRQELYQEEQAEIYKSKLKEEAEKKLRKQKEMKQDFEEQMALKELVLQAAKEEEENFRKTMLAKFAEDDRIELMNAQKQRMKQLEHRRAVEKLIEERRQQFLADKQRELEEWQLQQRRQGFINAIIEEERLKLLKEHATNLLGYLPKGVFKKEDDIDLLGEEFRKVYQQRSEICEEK
The test is described as follows: co-IP.

B1: CFAP53 (protein, UniProt Q96M91 1-514)
chain: MYSQRFGTVQREVKGPTPKVVIVRSKPPKGQGAEHHLERIRRSHQKHNAILASIKSSERDRLKAEWDQHNDCKILDSLVRARIKDAVQGFIINIEERRNKLRELLALEENEYFTEMQLKKETIEEKKDRMREKTKLLKEKNEKERQDFVAEKLDQQFRERCEELRVELLSIHQKKVCEERKAQIAFNEELSRQKLVEEQMFSKLWEEDRLAKEKREAQEARRQKELMENTRLGLNAQITSIKAQRQATQLLKEEEARLVESNNAQIKHENEQDMLKKQKAKQETRTILQKALQERIEHIQQEYRDEQDLNMKLVQRALQDLQEEADKKKQKREDMIREQKIYHKYLAQRREEEKAQEKEFDRILEEDKAKKLAEKDKELRLEKEARRQLVDEVMCTRKLQVQEKLQREAKEQEERAMEQKHINESLKELNCEEKENFARRQRLAQEYRKQLQMQIAYQQQSQEAEKEEKRREFEAGVAANKMCLDKVQEVLSTHQVLPQNIHPMRKACPSKLPP
Turning to B1, the values for the binding result in the test with CFAP53 and in the test with MNS1 were “no binding” and “binds”, respectively.

B2: MNS1 (protein, UniProt Q8NEH6 1-495)
chain: MGSKRRNLSCSERHQKLVDENYCKKLHVQALKNVNSQIRNQMVQNENDNRVQRKQFLRLLQNEQFELDMEEAIQKAEENKRLKELQLKQEEKLAMELAKLKHESLKDEKMRQQVRENSIELRELEKKLKAAYMNKERAAQIAEKDAIKYEQMKRDAEIAKTMMEEHKRIIKEENAAEDKRNKAKAQYYLDLEKQLEEQEKKKQEAYEQLLKEKLMIDEIVRKIYEEDQLEKQQKLEKMNAMRRYIEEFQKEQALWRKKKREEMEEENRKIIEFANMQQQREEDRMAKVQENEEKRLQLQNALTQKLEEMLRQREDLEQVRQELYQEEQAEIYKSKLKEEAEKKLRKQKEMKQDFEEQMALKELVLQAAKEEEENFRKTMLAKFAEDDRIELMNAQKQRMKQLEHRRAVEKLIEERRQQFLADKQRELEEWQLQQRRQGFINAIIEEERLKLLKEHATNLLGYLPKGVFKKEDDIDLLGEEFRKVYQQRSEICEEK
With B2, the binding entry in the test with MNS1 is given as “binds”.
